Reference: patent publication US20190030063A1
These are yes or no findings as the source states them, for the method shown. Binding seen in cells or lysates may run through a third protein. Some results given as binding are weak or reduced against the parent protein; the word gives no strength.

Chains of the proteins cited; added tags and fusions are not shown. Residues count along the entry.
UniProt A4GG66: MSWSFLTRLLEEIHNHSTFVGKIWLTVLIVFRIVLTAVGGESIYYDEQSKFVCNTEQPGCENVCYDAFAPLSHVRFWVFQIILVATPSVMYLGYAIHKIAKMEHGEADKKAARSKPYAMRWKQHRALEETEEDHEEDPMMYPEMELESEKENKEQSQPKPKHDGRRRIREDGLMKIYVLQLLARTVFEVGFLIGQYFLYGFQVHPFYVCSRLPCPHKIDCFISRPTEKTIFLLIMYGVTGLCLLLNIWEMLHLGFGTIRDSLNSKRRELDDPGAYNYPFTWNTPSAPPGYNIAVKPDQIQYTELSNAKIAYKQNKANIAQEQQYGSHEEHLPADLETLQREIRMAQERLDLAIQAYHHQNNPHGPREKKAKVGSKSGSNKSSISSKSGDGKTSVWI
UniProt P08050, residues 2-382: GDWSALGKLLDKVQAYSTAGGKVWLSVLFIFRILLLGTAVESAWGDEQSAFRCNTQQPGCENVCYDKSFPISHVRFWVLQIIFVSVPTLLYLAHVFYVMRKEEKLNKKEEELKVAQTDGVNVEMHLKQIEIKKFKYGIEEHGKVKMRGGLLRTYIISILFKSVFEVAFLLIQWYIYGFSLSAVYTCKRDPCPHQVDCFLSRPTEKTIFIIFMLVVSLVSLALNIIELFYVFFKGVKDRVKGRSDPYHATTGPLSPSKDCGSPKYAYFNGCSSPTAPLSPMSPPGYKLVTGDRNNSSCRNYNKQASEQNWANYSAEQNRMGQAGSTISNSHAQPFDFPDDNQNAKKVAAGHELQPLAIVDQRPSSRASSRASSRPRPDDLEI

How the values were obtained:
[1] = target: rat Connexin 45 (Cx45), expressed in rat ventricular tissue from rAAV.Cx45 (full-length rat Cx45 cDNA) (rat) (UniProt A4GG66); assay: co-immunoprecipitation from ventricular tissue lysate, immunoblot
[2] = target: rat Connexin 45 (Cx45), expressed in rat ventricular tissue from rAAV.Cx45 (full-length rat Cx45 cDNA) (rat) (UniProt A4GG66); assay: co-immunoprecipitation with monoclonal anti-Cx45 on protein G sepharose, immunoblot with anti-Cx43 (FIG. 4B)
[3] = target: rat Connexin 43 (Cx43), in rat ventricular tissue lysate (rat) (UniProt P08050); assay: co-immunoprecipitation from ventricular tissue lysate, immunoblot
[4] = target: rat Connexin 43 (Cx43), in rat ventricular tissue lysate (rat) (UniProt P08050); assay: co-immunoprecipitation with monoclonal anti-Cx43 on protein G sepharose, immunoblot with anti-Cx45 (FIG. 4A)

binding [1] | binding [2] | binding [3] | binding [4] | Substance
binds | binds | – | – | rat Connexin 43 (Cx43), in rat ventricular tissue lysate (from UniProt P08050 2-382)
– | – | binds | binds | rat Connexin 45 (Cx45), expressed in rat ventricular tissue from rAAV.Cx45 (full-length rat Cx45 cDNA) (from UniProt A4GG66 1-396)
